This is an account of results in the supplement of paper PMC8047044.

Where a name gives a salt, the structure may show the parent alone. This is one part of the list. Most values come without repeats; read them as rough.

The test system of the test is Neuro-2a. The test can be described thus: neurite formation score, plate-normalized to DMSO control mean 5.04 (score (0-8 scale)); higher = more or longer neurites. Conditions: 10 µM.
`C=CC(=O)Nc1cccc(Oc2nc(Nc3ccc(N4CCN(C)CC4)cc3OC)ncc2Cl)c1`: the neurite formation score is -0.124.

With `CC(=O)Nc1cccc(-n2c(=O)n(C3CC3)c(=O)c3c(Nc4ccc(I)cc4F)n(C)c(=O)c(C)c32)c1` [Trametinib DMSO solvate], the neurite formation score came out at 2.41.

Take `O=C(O)CCC(=O)Nc1ccc(Br)cn1` [Bikinin]: the neurite formation score turned out to be 4.52. With `CCNC(=O)Nc1ccc(-c2nc3c(c(N4CCOC[C@@H]4C)n2)CCN(C2COC2)C3)cc1` the figure was 4.21; with `c1cc(-c2cnn3cc(-c4ccc(OCCN5CCCCC5)cc4)cnc23)ccn1` [Dorsomorphin 2HCl], 2.43; with `O=C1NC(=O)/C(=C/c2ccc3nccc(-c4ccncc4)c3c2)S1`, 1.42. On to `Nc1ccc(-c2ccc3ncc4ccc(=O)n(-c5cccc(C(F)(F)F)c5)c4c3c2)cn1` [Torin 2], for which the neurite formation score was 3.86. On to `C=CC(=O)Nc1cccc(Nc2nc(Nc3ccc(NC4CN(CCF)C4)cc3OC)ncc2C(F)(F)F)c1`, for which the neurite formation score is 4.52. Molecule `O=S(=O)(c1cccc2cnccc12)N1CCCNCC1` [Fasudil (HA-1077) HCl] came in with a neurite formation score of 5.52.

Regarding `CC1(C)CNc2cc(NC(=O)c3cccnc3NCc3ccncc3)ccc21` [Motesanib Diphosphate (AMG-706)], the neurite formation score was 3.41.

`Cn1cnc(=N)c2[nH]cnc21` [3-Methyladenine] returned a neurite formation score of 4.19. Under `O=C(/C=C/c1ccc(O)c(O)c1)c1ccc(O)cc1O` [Butein] stands 3.54.

Take `CNC(=O)c1ccccc1Nc1nc(Nc2ccc(N3CCOCC3)cc2OC)ncc1Cl`: the neurite formation score turned out to be 2.43. `Cc1nc(-c2cn3c(n2)-c2ccc(-c4cnn(C(C)(C)C(N)=O)c4)cc2OCC3)n(C(C)C)n1`: the neurite formation score turned out to be 2.43. In the case of `COc1c(C)c(C(=O)c2ccc(N)c(C(=O)O)c2)n2ccccc12`, the neurite formation score was 4.43. With `CNC(=O)c1cc(Oc2ccc(NC(=O)Nc3ccc(Cl)c(C(F)(F)F)c3)c(F)c2)ccn1` [Regorafenib hydrochloride] the figure was 2.74.

On to `CN(C)Cc1cccc(N=C(c2ccccc2)c2c(O)[nH]c3cc(C(=O)N(C)C)ccc23)c1`, for which the neurite formation score amounted to 4.19. Molecule `O=C(Nc1cc(C(F)(F)F)cc(C(F)(F)F)c1)c1cc(Cl)ccc1O` displayed a neurite formation score of 0.424. In turn, `O=C(Nc1ccccc1C(=O)NC1CCCCNC1=O)c1cc2ccccc2s1` (stereo unspecified) registered a neurite formation score of 4.86. With `CC(C)NC[C@@H](C(=O)N1CCN(c2ncnc3c2[C@H](C)C[C@H]3O)CC1)c1ccc(Cl)cc1` the figure was 5.54; with `CNC(=O)CN1CCC(Oc2cc3c(Nc4cccc(Cl)c4F)ncnc3cc2OC)CC1` [AZD8931 (Sapitinib)], 3.43; with `Cn1c(Nc2ccc(C(F)(F)F)cc2)nc2cc(Oc3ccnc(-c4ncc(C(F)(F)F)[nH]4)c3)ccc21`, 4.85. For the molecule `NC(=O)Nc1cc(-c2cccc(F)c2)sc1C(=O)N[C@H]1CCCNC1`, the neurite formation score was 2.52. Regarding `Oc1ccc2ccccc2c1SSc1c(O)ccc2ccccc12`, the neurite formation score came out at 4.86. With `CNC(=O)c1cc(COc2nnc(Nc3ccc(Cl)cc3)c3ccoc23)ccn1` [Telatinib (BAY 57-9352)] the figure was 4.76. `CCS(=O)(=O)Nc1ccc2[nH]c(O)c(C(=Nc3ccc(CN4CCCCC4)cc3)c3ccccc3)c2c1` [Hesperadin] showed a neurite formation score of 1.41.
